The source of these data is the supplement of paper PMC10735217.

Where a name gives a salt, the structure may show the parent alone. The list shows a part of the results. Repeats in this data set agree poorly, so a single value says little.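 In a drug-repurposing library screen, luminescence reads luciferase driven by eight TEAD-binding elements, stably integrated into human kidney-derived cells. Compounds scoring over five robust Z scores above the plate mean are called hits.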

This test relates to HEK293A TEAD-LUC reporter. Nature of the test: TEAD-luciferase reporter activity (YAP activation), robust Z score vs plate; higher = stronger YAP/TEAD activation. The following applies: 24 h. (In a reporter assay the amount or activity of a reporter protein is the signal.)

In the case of `COc1ccc(CN(CCC(=O)O)S(=O)(=O)c2ccc(C)cc2)cc1`, the TEAD-luciferase reporter activity reads like this: (compound concentration: 200 nM) inactive: -0.138; (compound concentration: 2 uM) inactive: 0.626; (compound concentration: 10 uM) inactive: 0.362.
For the compound `Cn1c(NCCN(CCO)CCCc2ccc([N+](=O)[O-])cc2)cc(=O)n(C)c1=O` [Nifekalant hydrochloriden/a], the TEAD-luciferase reporter activity (compound concentration: 200 nM) is inactive: -1.56 and the TEAD-luciferase reporter activity (compound concentration: 10 uM) is inactive: -0.0278.
With `Cn1c(NCCN(CCO)CCCc2ccc([N+](=O)[O-])cc2)cc(=O)n(C)c1=O` [nifekalant hydrochloride], the TEAD-luciferase reporter activity (compound concentration: 2 uM) was inactive: -0.9.
Turning to `COc1ccc(-c2nc(=O)n(CC=C(C)C)nc2-c2ccc(OC)cc2)cc1`, the TEAD-luciferase reporter activity runs as follows: (compound concentration: 200 nM) inactive: 0.357; (compound concentration: 2 uM) inactive: -0.454; (compound concentration: 10 uM) inactive: 0.649.
For `CC#C[C@]1(O)CCC2C3CCC4=CC(=O)CCC4=C3[C@@H](c3ccc4c(c3)OCO4)C[C@@]21C` (some centres undefined), the TEAD-luciferase reporter activity was inactive: -1.46 (compound concentration: 200 nM), inactive: -0.0666 (compound concentration: 2 uM) and inactive: 0.353 (compound concentration: 10 uM).
The matching figures for `O=C1C[C@@H]2CS(=O)c3ccccc3C2=NN1c1ccc(Cl)cc1` (some centres undefined): inactive: -0.788, inactive: -0.967 and inactive: 1.9.
As to `[N-]=[N+]=N[C@]1(CO)O[C@@H](n2ccc(N)nc2=O)[C@H](O)[C@@H]1O`, the TEAD-luciferase reporter activity by setting is: (compound concentration: 200 nM) inactive: -0.314; (compound concentration: 2 uM) inactive: 1.43; (compound concentration: 10 uM) inactive: 1.1.
With `CC(C)(S)C(N)C(=O)O` (racemic), the TEAD-luciferase reporter activity reads like this: (compound concentration: 200 nM) inactive: 0.704; (compound concentration: 10 uM) inactive: 0.155.
With `Clc1cccc(Cl)c1N(C1=NCCN1)C1CCCCO1` (centres undefined), the TEAD-luciferase reporter activity reads like this: (compound concentration: 200 nM) inactive: -1.92; (compound concentration: 2 uM) inactive: 1.74; (compound concentration: 10 uM) inactive: 1.03.
The matching figures for `NCCNC(=O)c1ccc(Cl)cn1` [Lazabemide]: inactive: -0.5, inactive: -0.03 and inactive: -1.03.
The matching figures for `Cn1c(=O)c2c(nc(N3CCOCC3)n2C)n(C)c1=O`: inactive: 0.421, inactive: 0.491 and active: 12.
The matching figures for `CC(C)(O)c1ccc(-c2nc(-c3ccc(F)cc3)oc2Sc2ccc(Cl)cn2)cn1`: inactive: -1.19, inactive: -0.626 and inactive: 1.08.
On to `CC(C)[N+](C)(CCOC(=O)C1c2ccccc2Oc2ccccc21)C(C)C` [Pro-Banthine50-34-0], for which the TEAD-luciferase reporter activity by setting is: (compound concentration: 200 nM) inactive: 4.75; (compound concentration: 10 uM) inactive: 1.08.
In the case of `CC(C)[N+](C)(CCOC(=O)C1c2ccccc2Oc2ccccc21)C(C)C` [Propantheline bromide], the TEAD-luciferase reporter activity (compound concentration: 2 uM) is inactive: -1.23.
On to `CCOC(=O)c1ccc(C#Cc2ccc3c(c2)C(C)(C)CCS3)nc1` [tazarotene], for which the TEAD-luciferase reporter activity was inactive: -1 (compound concentration: 200 nM), inactive: -0.529 (compound concentration: 2 uM) and inactive: 1.15 (compound concentration: 10 uM).
The matching figures for `C[C@@H]1CC[C@@]2(OC1)O[C@H]1C[C@H]3[C@@H]4CC[C@H]5C[C@H](O)CC[C@]5(C)[C@H]4CC[C@]3(C)[C@H]1[C@@H]2C` [smilagenin]: inactive: 0.176, inactive: -1.19 and inactive: -0.362.
The matching figures for `CCCc1nc(CC)c(C(=O)O)n1Cc1ccc(-c2ccccc2-c2nn[nH]n2)cc1`: inactive: -1.64, inactive: -1.18 and inactive: 1.48.
On to `[Br][Ag]` [Silver Bromide], for which the TEAD-luciferase reporter activity (compound concentration: 200 nM) is inactive: -0.481, the TEAD-luciferase reporter activity (compound concentration: 2 uM) is inactive: -0.468 and the TEAD-luciferase reporter activity (compound concentration: 10 uM) was inactive: 1.51.
`C[C@]12C=CC(=O)C=C1CC[C@@H]1[C@@H]2C(=O)C[C@@]2(C)[C@H]1CC[C@]2(O)C(=O)CO` [prednisolone, Takeda]: the TEAD-luciferase reporter activity (compound concentration: 2 uM) was inactive: -0.267.
On to `C[C@]12C=CC(=O)C=C1CC[C@@H]1[C@@H]2C(=O)C[C@@]2(C)[C@H]1CC[C@]2(O)C(=O)CO` [Prednisone53-03-2], for which the TEAD-luciferase reporter activity reads like this: (compound concentration: 200 nM) inactive: -1.88; (compound concentration: 10 uM) inactive: -1.63.
For `CN1CCN2c3ccccc3Cc3ccccc3C2C1` (centres undefined) [mianserin], under “compound concentration: 2 uM”, the TEAD-luciferase reporter activity is inactive: 1.29.
On to `CN1CCN2c3ccccc3Cc3ccccc3C2C1` (centres undefined), for which the TEAD-luciferase reporter activity (compound concentration: 200 nM) was inactive: 2.08 and the TEAD-luciferase reporter activity (compound concentration: 10 uM) was inactive: -0.405.
Turning to `N[C@H](CCC(=O)N[C@H](Cc1c[nH]c2ccccc12)C(=O)O)C(=O)O` [orilotimod], the TEAD-luciferase reporter activity reads like this: (compound concentration: 200 nM) inactive: -0.578; (compound concentration: 2 uM) inactive: 0.53; (compound concentration: 10 uM) inactive: 1.07.
The matching figures for `Cc1ccc(F)cc1[C@@H]1C/C(=N\NC(=N)N)c2c(C)ccnc2C1`: inactive: -1.2, inactive: -0.737 and inactive: -0.777.
The matching figures for `CCCCC[C@H](O)/C=C/[C@H]1C(=O)C=C[C@@H]1C/C=C\CCCC(=O)O`: inactive: -0.451, inactive: 0.883 and inactive: 0.78.
For the compound `NS(=O)(=O)c1nn2cc(-c3ccccc3)nc2s1`, the TEAD-luciferase reporter activity runs as follows: (compound concentration: 200 nM) inactive: 0.184; (compound concentration: 2 uM) inactive: -1.12; (compound concentration: 10 uM) inactive: 2.72.
As to `CCOC(=O)c1ccc([C@H]2CC[C@H](NC[C@H](O)COc3ccc(O)c(NS(C)(=O)=O)c3)CC2)cc1`, the TEAD-luciferase reporter activity is inactive: -1.72 (compound concentration: 200 nM), inactive: -0.895 (compound concentration: 2 uM) and inactive: 0.173 (compound concentration: 10 uM).
For the compound `NC(=O)c1ncn(C2OC(CO)C(O)C2O)n1` (centres undefined), the TEAD-luciferase reporter activity was inactive: -2.3 (compound concentration: 200 nM) and inactive: 1.06 (compound concentration: 10 uM).
On to `NC(=O)c1ncn(C2OC(CO)C(O)C2O)n1` (centres undefined) [ribavirin], for which the TEAD-luciferase reporter activity (compound concentration: 2 uM) was inactive: -0.791.
In the case of `CC(C)=CCC/C(C)=C/CC/C(C)=C/C=C/C(C)=C/C(=O)O` [peretinoin], the TEAD-luciferase reporter activity runs as follows: (compound concentration: 200 nM) inactive: 1.67; (compound concentration: 2 uM) inactive: -1.77; (compound concentration: 10 uM) inactive: -0.446.
